PubChem BioAssay AID1259308, NCATS – 2017
Screen: 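Knock-downs that increase output of a recombinant reporter protein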 (primary screen). System: human HEK293 embryonic kidney cells stably expressing firefly luciferase (HEK-CMV-Luc2-Hygro). Knock-down reagent: single siRNA against human genes, 0.8 pmol siRNA per well. Time to read-out: 72 h. Measured: 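Reporter luminescence and viable-cell signal on separate replicate plates, given as percent of non-targeting control and median/MAD z-scores, plus per-cell luciferase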. Direction: total luciferase, z-score and total luciferase, % of control: higher = more reporter protein produced. Hit rule: 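Active when the median/MAD z-score for overall luciferase is greater than 3; a gene was taken forward for validation with new siRNAs if at least two of its three siRNAs passed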. Calls: active = raised luciferase; inactive = no rise.
Shown is one part, drawn at random, of about 59,000 reagents. About 1,510 of all reagents (2.6%) were called active. 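Calls use total luciferase alone and ignore viability, so some active siRNAs may act by altering cell number.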 Reagents against one gene are numbered here. Not all columns of the deposit are shown.

For TAMM41 (GeneID 132001) #1, the entry reads total luciferase, z-score 1.53; total luciferase, % of control 112; inactive.
Against TAMM41 (GeneID 132001) #2, the values are total luciferase, z-score 0.479; total luciferase, % of control 91.4; inactive.
Silencing of TAMM41 (GeneID 132001) #3 came out at: total luciferase, z-score 0.536; total luciferase, % of control 92.5; inactive.
With knock-down of MSLNL (GeneID 401827) #1 the results were total luciferase, z-score -0.079; total luciferase, % of control 80.3; inactive.
Knock-down of MSLNL (GeneID 401827) #2 gave: total luciferase, z-score -3.3; total luciferase, % of control 16.2; inactive.
Knock-down of MSLNL (GeneID 401827) #3 came out at: total luciferase, z-score -0.436; total luciferase, % of control 73.2; inactive.
SPIN1 (GeneID 10927) #1 gave total luciferase, z-score 2.21; total luciferase, % of control 126; inactive.
Silencing of SPIN1 (GeneID 10927) #2 resulted in: total luciferase, z-score -0.963; total luciferase, % of control 62.7; inactive.
Silencing of SPIN1 (GeneID 10927) #3 gave: total luciferase, z-score 0.884; total luciferase, % of control 99.5; inactive.
Against F2RL3 (GeneID 9002) #1 the deposit lists total luciferase, z-score 1.02; total luciferase, % of control 102; inactive.
Against F2RL3 (GeneID 9002) #2, the entry reads total luciferase, z-score -1.21; total luciferase, % of control 57.9; inactive.
With knock-down of F2RL3 (GeneID 9002) #3, the screen gave total luciferase, z-score -0.103; total luciferase, % of control 79.8; inactive.
DCST1 (GeneID 149095) #1 scored total luciferase, z-score 0.44; total luciferase, % of control 90.6; inactive.
After knock-down of DCST1 (GeneID 149095) #2, the screen gave total luciferase, z-score -0.728; total luciferase, % of control 67.4; inactive.
For DCST1 (GeneID 149095) #3, the entry reads total luciferase, z-score 0.179; total luciferase, % of control 85.4; inactive.
With knock-down of LDLRAP1 (GeneID 26119) #1 the results were total luciferase, z-score 0.45; total luciferase, % of control 90.8; inactive.
Silencing of LDLRAP1 (GeneID 26119) #2 came out at: total luciferase, z-score 0.892; total luciferase, % of control 99.6; inactive.
Depletion of LDLRAP1 (GeneID 26119) #3 resulted in: total luciferase, z-score -0.508; total luciferase, % of control 71.8; inactive.
Against HEXB (GeneID 3074) #1, the entry reads total luciferase, z-score -1.43; total luciferase, % of control 53.4; inactive.
HEXB (GeneID 3074) #2 showed total luciferase, z-score -1.11; total luciferase, % of control 59.9; inactive.
Against HEXB (GeneID 3074) #3 the deposit lists total luciferase, z-score 0.588; total luciferase, % of control 93.6; inactive.
